Data on 4 molecules can be found in paper PMC8382200.

The chains behind the UniProt entries cited, without tags or fusion partners. Where a name states a change or a piece, a line headed by the entry shows the natural chain unless it says otherwise.
UniProt P35240: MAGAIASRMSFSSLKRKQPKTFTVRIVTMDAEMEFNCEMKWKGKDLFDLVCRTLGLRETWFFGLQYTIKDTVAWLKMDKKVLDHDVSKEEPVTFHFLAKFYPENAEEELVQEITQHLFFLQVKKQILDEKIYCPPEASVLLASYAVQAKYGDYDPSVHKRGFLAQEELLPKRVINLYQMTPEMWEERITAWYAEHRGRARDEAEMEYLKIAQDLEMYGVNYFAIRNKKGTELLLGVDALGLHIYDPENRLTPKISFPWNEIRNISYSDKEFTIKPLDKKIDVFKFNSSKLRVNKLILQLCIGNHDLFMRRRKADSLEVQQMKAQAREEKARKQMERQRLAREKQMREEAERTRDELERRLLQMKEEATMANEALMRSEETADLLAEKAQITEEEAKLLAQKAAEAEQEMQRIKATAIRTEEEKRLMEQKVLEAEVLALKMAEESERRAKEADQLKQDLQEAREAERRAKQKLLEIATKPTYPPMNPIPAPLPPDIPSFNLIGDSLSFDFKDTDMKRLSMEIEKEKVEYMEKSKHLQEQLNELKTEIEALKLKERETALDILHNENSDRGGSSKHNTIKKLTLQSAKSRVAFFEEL
UniProt O14646: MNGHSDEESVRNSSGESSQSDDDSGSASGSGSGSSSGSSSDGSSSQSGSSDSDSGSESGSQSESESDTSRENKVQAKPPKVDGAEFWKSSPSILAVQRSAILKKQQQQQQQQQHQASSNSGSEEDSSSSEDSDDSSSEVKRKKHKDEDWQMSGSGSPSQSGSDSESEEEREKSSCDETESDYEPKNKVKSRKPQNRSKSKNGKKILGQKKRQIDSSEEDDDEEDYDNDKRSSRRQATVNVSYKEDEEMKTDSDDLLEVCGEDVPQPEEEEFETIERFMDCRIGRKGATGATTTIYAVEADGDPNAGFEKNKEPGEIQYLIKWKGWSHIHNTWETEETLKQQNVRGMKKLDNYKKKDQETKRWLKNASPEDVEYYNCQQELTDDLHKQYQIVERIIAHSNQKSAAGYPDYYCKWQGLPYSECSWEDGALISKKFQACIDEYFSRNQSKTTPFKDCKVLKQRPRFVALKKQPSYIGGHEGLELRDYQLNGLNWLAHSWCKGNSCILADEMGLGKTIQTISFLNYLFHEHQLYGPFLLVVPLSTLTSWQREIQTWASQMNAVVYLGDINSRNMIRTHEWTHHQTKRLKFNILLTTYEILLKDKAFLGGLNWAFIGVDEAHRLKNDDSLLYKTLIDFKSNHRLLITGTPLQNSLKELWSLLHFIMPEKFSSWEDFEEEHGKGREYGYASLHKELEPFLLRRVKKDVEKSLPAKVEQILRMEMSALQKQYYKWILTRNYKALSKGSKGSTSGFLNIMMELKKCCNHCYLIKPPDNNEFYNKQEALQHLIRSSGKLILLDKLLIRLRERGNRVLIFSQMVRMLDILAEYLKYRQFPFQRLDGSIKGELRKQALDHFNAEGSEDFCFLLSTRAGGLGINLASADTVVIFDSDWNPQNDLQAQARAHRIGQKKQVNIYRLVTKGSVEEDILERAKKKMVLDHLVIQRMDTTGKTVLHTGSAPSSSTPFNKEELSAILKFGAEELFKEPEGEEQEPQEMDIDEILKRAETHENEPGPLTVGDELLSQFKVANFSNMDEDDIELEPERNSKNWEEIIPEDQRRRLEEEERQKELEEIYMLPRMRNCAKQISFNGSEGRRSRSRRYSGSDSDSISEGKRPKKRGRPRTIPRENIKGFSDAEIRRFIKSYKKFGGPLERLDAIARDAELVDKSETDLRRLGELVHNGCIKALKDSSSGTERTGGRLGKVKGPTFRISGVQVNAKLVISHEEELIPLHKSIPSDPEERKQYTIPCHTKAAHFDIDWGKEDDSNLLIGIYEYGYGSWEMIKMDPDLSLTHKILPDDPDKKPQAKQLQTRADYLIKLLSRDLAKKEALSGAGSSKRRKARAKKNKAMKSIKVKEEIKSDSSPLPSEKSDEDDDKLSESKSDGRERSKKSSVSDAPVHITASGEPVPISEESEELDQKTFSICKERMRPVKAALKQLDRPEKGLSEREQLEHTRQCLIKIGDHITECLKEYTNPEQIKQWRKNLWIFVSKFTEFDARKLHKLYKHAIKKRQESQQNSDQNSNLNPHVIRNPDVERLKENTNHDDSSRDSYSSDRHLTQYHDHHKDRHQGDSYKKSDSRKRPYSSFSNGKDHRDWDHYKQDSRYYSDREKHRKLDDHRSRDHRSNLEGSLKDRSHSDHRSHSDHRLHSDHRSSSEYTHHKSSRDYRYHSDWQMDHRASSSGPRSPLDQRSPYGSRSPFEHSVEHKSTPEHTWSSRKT
UniProt Q9Y4B6: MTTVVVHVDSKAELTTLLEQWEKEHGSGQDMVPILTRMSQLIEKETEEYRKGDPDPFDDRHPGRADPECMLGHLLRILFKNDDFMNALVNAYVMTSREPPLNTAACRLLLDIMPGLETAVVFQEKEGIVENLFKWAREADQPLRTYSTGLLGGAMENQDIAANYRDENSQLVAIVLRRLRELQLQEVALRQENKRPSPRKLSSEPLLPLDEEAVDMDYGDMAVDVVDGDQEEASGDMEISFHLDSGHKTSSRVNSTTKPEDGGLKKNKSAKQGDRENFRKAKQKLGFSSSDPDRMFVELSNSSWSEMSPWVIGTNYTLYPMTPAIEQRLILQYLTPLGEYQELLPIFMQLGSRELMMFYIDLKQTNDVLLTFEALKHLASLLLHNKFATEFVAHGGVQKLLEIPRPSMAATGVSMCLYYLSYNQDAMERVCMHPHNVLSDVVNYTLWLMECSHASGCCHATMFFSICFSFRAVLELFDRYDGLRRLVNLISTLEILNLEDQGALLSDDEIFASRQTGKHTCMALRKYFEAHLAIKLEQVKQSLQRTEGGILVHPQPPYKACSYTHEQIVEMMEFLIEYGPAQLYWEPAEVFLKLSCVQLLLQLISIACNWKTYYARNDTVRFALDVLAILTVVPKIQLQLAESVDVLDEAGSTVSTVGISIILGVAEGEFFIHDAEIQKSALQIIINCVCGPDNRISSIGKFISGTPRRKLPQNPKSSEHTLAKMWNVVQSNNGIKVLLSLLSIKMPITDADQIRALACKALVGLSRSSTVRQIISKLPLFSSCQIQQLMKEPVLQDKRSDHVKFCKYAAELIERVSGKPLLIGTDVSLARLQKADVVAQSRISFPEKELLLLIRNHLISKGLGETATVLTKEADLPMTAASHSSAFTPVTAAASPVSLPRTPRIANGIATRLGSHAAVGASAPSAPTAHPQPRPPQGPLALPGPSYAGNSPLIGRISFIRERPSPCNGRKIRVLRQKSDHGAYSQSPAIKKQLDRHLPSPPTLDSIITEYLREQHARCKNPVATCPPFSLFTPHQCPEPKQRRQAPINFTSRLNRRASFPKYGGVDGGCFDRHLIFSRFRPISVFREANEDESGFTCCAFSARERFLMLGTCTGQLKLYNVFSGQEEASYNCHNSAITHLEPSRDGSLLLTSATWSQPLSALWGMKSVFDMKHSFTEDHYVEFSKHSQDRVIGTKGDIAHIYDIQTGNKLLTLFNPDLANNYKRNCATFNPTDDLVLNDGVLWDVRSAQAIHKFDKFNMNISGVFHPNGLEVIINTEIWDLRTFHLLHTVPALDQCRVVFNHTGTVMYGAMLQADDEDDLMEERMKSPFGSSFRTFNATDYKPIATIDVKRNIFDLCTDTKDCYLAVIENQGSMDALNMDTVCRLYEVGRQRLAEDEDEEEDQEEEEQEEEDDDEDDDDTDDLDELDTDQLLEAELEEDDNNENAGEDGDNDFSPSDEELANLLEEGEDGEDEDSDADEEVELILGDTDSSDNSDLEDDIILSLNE

Assay [1] has as its target recombinant GST-Merlin ΔB41 (UniProt P35240). Kind of assay: pull-down; 'fishing': recombinant GST-Merlin proteins from Sf9 on Glutathione Sepharose beads (10 μl) added to cell lysates for 2 h, washed, eluted with LDS sample buffer; Western blot; only the target purified.
For assay [2], the target named is Flag-Merlin L64P (UniProt P35240). Put plainly: co-IP; Flag-tagged proteins transfected in HEK293T; lysis in PBS-E LB (1% TX100); Flag (M2) agarose IP; endogenous proteins by Western blot; in some panels after siRNA knock-downs or in dense or sparse cells. For orientation: A western blot detects proteins with antibodies after separation by electrophoresis.
Assay [3] addresses Flag-Merlin A211D (UniProt P35240). The description is as above.
Assay [4] has as its target Flag-Merlin ΔF118 (UniProt P35240). Described as above.
In assay [5] the target is Flag-Merlin L46R (UniProt P35240). The assay is described as above.
Assay [6] deals with recombinant GST-Merlin L46R (UniProt P35240). Kind of assay: pull-down; 'fishing': recombinant GST-Merlin proteins from Sf9 on Glutathione Sepharose beads (10 μl) added to cell lysates for 2 h, washed, eluted with LDS sample buffer; Western blot; only the target purified.
Assay [7] deals with Flag-Merlin isoform 2. Kind of assay: co-IP; Flag-tagged proteins transfected in HEK293T; lysis in PBS-E LB (1% TX100); Flag (M2) agarose IP; endogenous proteins by Western blot; in some panels after siRNA knock-downs or in dense or sparse cells.
Assay [8] concerns the target GST-Merlin N-terminal half. Put plainly: pull-down; GST-Merlin constructs transfected in and purified from HEK293T cells (glutathione beads); bound endogenous proteins by Western blot.
The target of assay [9] is GST-Merlin C-terminal half. Described as above.

These are yes or no findings as the source states them, for the method shown. In cells and extracts the contact can be indirect. For some assays here: A result given as binding can be weak or reduced; the word gives no strength.

Take CHD1 (from UniProt O14646 1-1710): in assay [1], the binding entry is reported as “no binding”.

In the case of VPRBP (from UniProt Q9Y4B6 1-1507), the binding result in assay [2], in [3], in assay [4], in assay [5], in [6] and in assay [1] was “binds” in each case.

B1: TAT-SF1 (protein, UniProt O43719 1-755)
chain: MSGTNLDGNDEFDEQLRMQELYGDGKDGDTQTDAGGEPDSLGQQPTDTPYEWDLDKKAWFPKITEDFIATYQANYGFSNDGASSSTANVEDVHARTAEEPPQEKAPEPTDARKKGEKRKAESGWFHVEEDRNTNVYVSGLPPDITVDEFIQLMSKFGIIMRDPQTEEFKVKLYKDNQGNLKGDGLCCYLKRESVELALKLLDEDEIRGYKLHVEVAKFQLKGEYDASKKKKKCKDYKKKLSMQQKQLDWRPERRAGPSRMRHERVVIIKNMFHPMDFEDDPLVLNEIREDLRVECSKFGQIRKLLLFDRHPDGVASVSFRDPEEADYCIQTLDGRWFGGRQITAQAWDGTTDYQVEETSREREERLRGWEAFLNAPEANRGLRRSDSVSASERAGPSRARHFSEHPSTSKMNAQETATGMAFEEPIDEKKFEKTEDGGEFEEGASENNAKESSPEKEAEEGCPEKESEEGCPKRGFEGSCSQKESEEGNPVRGSEEDSPKKESKKKTLKNDCEENGLAKESEDDLNKESEEEVGPTKESEEDDSEKESDEDCSEKQSEDGSEREFEENGLEKDLDEEGSEKELHENVLDKELEENDSENSEFEDDGSEKVLDEEGSEREFDEDSDEKEEEEDTYEKVFDDESDEKEDEEYADEKGLEAADKKAEEGDADEKLFEESDDKEDEDADGKEVEDADEKLFEDDDSNEKLFDEEEDSSEKLFDDSDERGTLGGFGSVEEGPLSTGSSFILSSDDDDDDI
In the case of B1, the values for the binding entry in [7], in assay [8] and in [9] were “binds”, “no binding” and “no binding”, respectively.

B2: AMOTL1 (protein, UniProt Q8IY63 1-956)
chain: MWRAKLRRGTCEPAVKGSPSACYSPSSPVQVLEDSTYFSPDFQLYSGRHETSALTVEATSSIREKVVEDPLCNFHSPNFLRISEVEMRGSEDAAAGTVLQRLIQEQLRYGTPTENMNLLAIQHQATGSAGPAHPTNNFSSTENLTQEDPQMVYQSARQEPQGQEHQVDNTVMEKQVRSTQPQQNNEELPTYEEAKAQSQFFRGQQQQQQQQGAVGHGYYMAGGTSQKSRTEGRPTVNRANSGQAHKDEALKELKQGHVRSLSERIMQLSLERNGAKQHLPGSGNGKGFKVGGGPSPAQPAGKVLDPRGPPPEYPFKTKQMMSPVSKTQEHGLFYGDQHPGMLHEMVKPYPAPQPVRTDVAVLRYQPPPEYGVTSRPCQLPFPSTMQQHSPMSSQTSSASGPLHSVSLPLPLPMALGAPQPPPAASPSQQLGPDAFAIVERAQQMVEILTEENRVLHQELQGYYDNADKLHKFEKELQRISEAYESLVKSTTKRESLDKAMRNKLEGEIRRLHDFNRDLRDRLETANRQLSSREYEGHEDKAAEGHYASQNKEFLKEKEKLEMELAAVRTASEDHRRHIEILDQALSNAQARVIKLEEELREKQAYVEKVEKLQQALTQLQSACEKREQMERRLRTWLERELDALRTQQKHGNGQPANMPEYNAPALLELVREKEERILALEADMTKWEQKYLEESTIRHFAMNAAATAAAERDTTIINHSRNGSYGESSLEAHIWQEEEEVVQANRRCQDMEYTIKNLHAKIIEKDAMIKVLQQRSRKDAGKTDSSSLRPARSVPSIAAATGTHSRQTSLTSSQLAEEKKEEKTWKGSIGLLLGKEHHEHASAPLLPPPPTSALSSIASTTAASSAHAKTGSKDSSTQTDKSAELFWPSMASLPSRGRLSTTPAHSPVLKHPAAKGTAEKLENSPGHGKSPDHRGRVSSLLHKPEFPDGEMMEVLI
On to B2, for which the binding entry in [9] is “binds”.
